Experimental data taken from patent publication US20040242550A1, “Means and method for hormonal contraception” (priority 2001, published 2004).
At least one structure is not confirmed: it was looked up by name or label, or the drawing left a doubt.

Test: conversion factors for progestogens: amount equivalent to a given amount of levonorgestrel
Details: estimated amount of progestogen
Excerpt: In order to determine for a specific biogenic estrogen or synthetic estrogen the amounts that are equivalent to a cited amount of ethinyl estradiol or 17beta-estradiol, the method described by Allen and Doisy may suitably be used (Allen A., Doisy E. A., “An ovarian hormone. Preliminary report on its localization, extraction and partial purification, and action in test animals. JAMA (1923), 81, 819-821). Similarly, in order to determine for a given progestogen the amount equivalent to cited amount of levonorgestrel the method originally described by McPhail can be used (Mc Phail M. K. “The assay of progestin” J Physiol (1934), 83, 145-156). A more recent description of this method can be found in an article written by Overbeek G. A., de Visser J. “A new substance with progestational activity”, Acta Endocrinol (1956), 22, 318-329. It is noted that the aforementioned methods will provide useful indications about the anticipated estrogen potency or progestogen potency of a particular hormone. However, to accurately determine the equivalent amounts that are referred to above, it is advisable to additionally conduct in vivo studies in human females.
For guidance the table below provides the conversion factors for a number of progestogens that may suitably be used in the method of the invention. […]

C#C[C@]1(O)CC[C@H]2[C@@H]3CCC4=CC(=O)CC[C@@H]4[C@H]3CC[C@@]21CC [levonorgestrel]
equivalent to 30 μg levonorgestrel: 30 µg | equivalent to 750 μg levonorgestrel: 750 µg
